# Reference: PMC7819943, “Rice protein-binding microarrays: a tool to detect cis-acting elements near promoter regions in rice”
# Amino acid sequences for entries named in this document (tags omitted).
# UniProt Q0JBA9, entry or part of it: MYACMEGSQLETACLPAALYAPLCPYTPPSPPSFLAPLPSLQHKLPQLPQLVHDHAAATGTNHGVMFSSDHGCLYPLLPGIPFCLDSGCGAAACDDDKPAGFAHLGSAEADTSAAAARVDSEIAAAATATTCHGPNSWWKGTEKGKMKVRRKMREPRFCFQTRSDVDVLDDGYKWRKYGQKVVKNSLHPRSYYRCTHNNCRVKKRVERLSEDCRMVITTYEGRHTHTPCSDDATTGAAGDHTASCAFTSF
# The other results are listed elsewhere or left out.
# Molecular target: OsWRKY34 (Oryza sativa, UniProt Q0JBA9 1-250)
# Assay: protein-binding microarray (RPBM); PBS, 2% BSA, 51.3 ng/ul salmon testes DNA, 50 uM zinc acetate, 200 nM TF, 25 C, 1 h; high values mean tight binding
# Conditions: protein: recombinant; tags: N-terminal polyhistidine and DsRed monomer fusion (pET32a); label: CyDye5-dUTP incorporated in the synthesized complementary strand; 3' TTTTT single-stranded linker to array surface; dsDNA, one strand shown
# Summary of the method: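 Transcription factors were made in E. coli BL21-CodonPlus as N-terminal fusions to a polyhistidine tag and DsRed, then purified on Ni–NTA. After primer extension with Cy5-dUTP and blocking with 2% BSA, a custom Agilent array was exposed for 1 h at 25 °C to 200 nM protein in PBS, 2% BSA, salmon testes DNA and 50 µM zinc acetate. Washed arrays were scanned on an Axon 4000B, and the binding signal is per-feature fluorescence intensity in arbitrary units.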
row,Sequence,binding signal
1,CAGTTCTTCAACACAACGTTGCAGCTCATTCTTCTCCCTTCGGAGTCACCTAGTGCAG,11200 fluorescence intensity (a.u.)
2,AATCTTCTACATACACGCTTCATTCCATTTTTGATAGATTCGGAGTCACCTAGTGCAG,9060 fluorescence intensity (a.u.)
3,TCCCATGGCTCGCGTTCGGCCACGTGCTCCCTTACCTAGACGGAGTCACCTAGTGCAG,8900 fluorescence intensity (a.u.)
4,TCCTAGCTAGCTAACAAGTGTTTATCTCACCATGCATAATCGGAGTCACCTAGTGCAG,8220 fluorescence intensity (a.u.)
5,GCGATCTGATCTATACAATGGTTGTTAATAGTGGGTTTTTCGGAGTCACCTAGTGCAG,9330 fluorescence intensity (a.u.)
6,GTATACTATTTTATTCTCCATTGTGTTTTTTTTTCTCTTTCGGAGTCACCTAGTGCAG,10700 fluorescence intensity (a.u.)
7,CTCGTCCTACTTAGTACTCCTGCCGTACGTATTTATTGTACGGAGTCACCTAGTGCAG,9420 fluorescence intensity (a.u.)
8,AAGCCCACATTGGCCCATTTTGATTCATCTCGGAGTTTTTCGGAGTCACCTAGTGCAG,10100 fluorescence intensity (a.u.)
9,GTGTTTCTATTTTACACACGCGGCACATTCCTATATTTTCCGGAGTCACCTAGTGCAG,8900 fluorescence intensity (a.u.)
10,TTTGGATTTTGTTTCATTTTTTTTTACATGCATTGGATTACGGAGTCACCTAGTGCAG,9400 fluorescence intensity (a.u.)
11,ACGAACGGTCAAACATGTGATAAAAAGTCAACGACGTCAACGGAGTCACCTAGTGCAG,8600 fluorescence intensity (a.u.)
12,CACGCCGTACTTGCTCCACGATAAGCTCGTGCTCTGCTCTCGGAGTCACCTAGTGCAG,8170 fluorescence intensity (a.u.)
13,CCTCTACTCGATTACGATGTTCCTGGAGTAAATTTCTCCACGGAGTCACCTAGTGCAG,8210 fluorescence intensity (a.u.)
14,AGGGATTATGTGTGTGTAAGATATTTGTGACTAGTTTATTCGGAGTCACCTAGTGCAG,11500 fluorescence intensity (a.u.)
15,TCTTCTTTTGTACCGTTCATTTTTTTCTTTCTTTTTAGACCGGAGTCACCTAGTGCAG,11800 fluorescence intensity (a.u.)
16,TAATTCATGTCGGTCCTTCTTGTTGCATGGAAATATCCACCGGAGTCACCTAGTGCAG,8360 fluorescence intensity (a.u.)
17,ACTATTCCACCTATAAGGCCGCGCCGCCGCCGCCGACGAGCGGAGTCACCTAGTGCAG,8300 fluorescence intensity (a.u.)
18,GAACATATGCAAACAACTGTTAGAAAGTTATGTATGACCACGGAGTCACCTAGTGCAG,8080 fluorescence intensity (a.u.)
19,AAGTTTATTTTGCTATTTTCTTCTCCGGCATGATCGCTCCCGGAGTCACCTAGTGCAG,10900 fluorescence intensity (a.u.)
20,GTCAATTCCATTTCATCCCCAAACTTCCTTCTGCTCTTGCCGGAGTCACCTAGTGCAG,8900 fluorescence intensity (a.u.)
21,CAAATATTTTCTTTAGCTGTTCTATTATCAAGTATGTTCACGGAGTCACCTAGTGCAG,9000 fluorescence intensity (a.u.)

# No new results follow: entries from further up.
row,Sequence,binding signal
18,GAACATATGCAAACAACTGTTAGAAAGTTATGTATGACCACGGAGTCACCTAGTGCAG,8080 fluorescence intensity (a.u.)
19,AAGTTTATTTTGCTATTTTCTTCTCCGGCATGATCGCTCCCGGAGTCACCTAGTGCAG,10900 fluorescence intensity (a.u.)

# (cont.)

row,Sequence,binding signal
1,TCAACTTCACTCCACCTTTTTTCGCACGCACGCTTTCCAACGGAGTCACCTAGTGCAG,8900 fluorescence intensity (a.u.)
2,GGCACTCAGCATTCTCGCATTTTATCACCACCGAAAACAACGGAGTCACCTAGTGCAG,8150 fluorescence intensity (a.u.)
3,CAATTCAGGTTTGTGGTTGCATATGGATCCCAATGGACGCCGGAGTCACCTAGTGCAG,8110 fluorescence intensity (a.u.)
4,AACCACACAAACACCCGCTGCGCCGCTCGCTTCCTCCTCCCGGAGTCACCTAGTGCAG,9880 fluorescence intensity (a.u.)
5,CACGCCGCTTGGCAACACACAACGATTCCGGACTAGGTACCGGAGTCACCTAGTGCAG,8050 fluorescence intensity (a.u.)
6,CATTGCCATCTCGCCAGATTCACCTCCTTTCCTTGCCGCCCGGAGTCACCTAGTGCAG,9340 fluorescence intensity (a.u.)
7,TAGCCACACCCACACGCACACCCGATCGATCCTGGCATCCCGGAGTCACCTAGTGCAG,9050 fluorescence intensity (a.u.)
8,AGTAGTAGTTTCGTTTGTACGTTGACCCAAGCAGCAGATGCGGAGTCACCTAGTGCAG,9340 fluorescence intensity (a.u.)
9,CGAATCACGCGCTCTCCAACTCACACGCGTCCGCATCAACCGGAGTCACCTAGTGCAG,11000 fluorescence intensity (a.u.)
10,CAATTCGTCCGCGAGCTATACAAATTTGGATTCGTTTTGTCGGAGTCACCTAGTGCAG,10400 fluorescence intensity (a.u.)
11,CCCCACACTCCTTCGGCGCGCGCGTCCGTCCTCGATCGCGCGGAGTCACCTAGTGCAG,9720 fluorescence intensity (a.u.)
12,TTGCTTAACATATGCAAGTCGTTTCGGGGAGAGGGGCAGACGGAGTCACCTAGTGCAG,8020 fluorescence intensity (a.u.)
13,TAATGGGTTTTTTTTAGTGTTTCATTTTTTCTCTTCGGTTCGGAGTCACCTAGTGCAG,10800 fluorescence intensity (a.u.)
14,CAGATTCCTGTGTTTTTCCTATTCCTCCATTTTTTCAACCCGGAGTCACCTAGTGCAG,8120 fluorescence intensity (a.u.)
15,GGTTTTTTTTTTTCCGGATCAAATTGCCACGTCAACACGACGGAGTCACCTAGTGCAG,9510 fluorescence intensity (a.u.)
16,CGCCTCCGCCTCCGTCGACTCCGCGCCTCCGCCGCCACCCCGGAGTCACCTAGTGCAG,15100 fluorescence intensity (a.u.)
17,CGTCACCGCCGTCGATCTGCGCTCTCAGCCCGGCCAGCCACGGAGTCACCTAGTGCAG,8420 fluorescence intensity (a.u.)
18,TGTAAGTTAGCTTATCCTTGCTCCGGCCTCTACCGCATCTCGGAGTCACCTAGTGCAG,12100 fluorescence intensity (a.u.)
19,GGCTCGTTCGTCGTCTCCTCCCACCGCCGCTCGCGGGAGACGGAGTCACCTAGTGCAG,9420 fluorescence intensity (a.u.)
20,CATCGTGCTCTTCTCATTGCCTCTGCTTCTCGTGTTCTTGCGGAGTCACCTAGTGCAG,9360 fluorescence intensity (a.u.)
21,ATACCATCTTAGTCATTGGGTTGGGAATGGCCTAAGATCACGGAGTCACCTAGTGCAG,8050 fluorescence intensity (a.u.)
